At least one read-out could not be matched to a standard name with certainty.
How the values were obtained:
[1] = test system: caterpillars, a mixture of Mamestra brassicae and Lacanobia oleracea; test: Potter tower spray on caterpillars, knockdown and mortality; assay type: in vivo
Excerpt: (§1) Myzus persicae, Cabbage moth, Mamestra brassicae, diamond back moths, Plutella xylostella, red spider mites, Tetranychus urticae, whitefly, Trialeurodes vaporariorum, were obtained from specified laboratory cultures. Mixed sex and age aphids and mites, moth larvae and whitefly scale infested leaves were used in the experiments. Environmental conditions were closely monitored and recorded and were within the optimal range of the target species.
(§2) The compounds were screened at a range of five concentrations, diluted in DMSO. Some of the compounds were screened against aphids, whitefly and red spider mites and other compounds were screened against cabbage moth, and diamond black moths. A carrier only and an untreated control will also be conducted. Treatments were applied directly onto the insects within Petri dishes, using a potter tower.
(§3) Twenty mites and ten aphids, scales and moth larvae were placed within a Petri dish, lined with a suitable leaf disc on a damp cotton wool pad. Scales were already on leaves. The Petri dishes were then sprayed using a potter tower. The number of knocked down and anthropods were assessed at 24 and 48 hours post treatment. Five replicates were be performed for each treatment, for each species.
(§4) For Tables 2, 4, 5 and 6, the compounds were diluted in DMSO containing 1% v/v Tween 20™. For Tables 2, 4, 5 and 6, the caterpillars were a mixture of Mamestra brassicae and Lacanobia oleracea.

aphids, Myzus persicae = test: Potter tower spray on aphids, knockdown and mortality; assay type: in vivo
Excerpt: The compounds were screened for insecticidal efficacy against aphids, Myzus persicae, Cabbage moth, Mamestra brassicae, diamond black moths, Plutella xylostella, red spider mites, Tetranychus urticae, whitefly, Trialeurodes vaporariorum, in terms of knockdown and mortality.
as §1, §2, §3, §4

[2] = 0.00625 % w/v, 48 hours post application
[3] = 0.00625 % w/v, 48 hours post application, listed as 26 (2nd batch)

For `O=C(Nc1ccc(-c2cncnc2)oc1=O)C1CC1` [Compound 26, N-[2-Oxo-6-(5-pyrimidyl)pyran-3-yl]cyclopropanecarboxamide], the “Average of % corrected affected” value ([1]; 0.00625 % w/v, 24 hours post application) was “E (A percentage control of from 1 to 19 is indicated by the letter E)”, the “Average of % corrected affected” value ([1]; 0.00625 % w/v, 24 hours post application, listed as 26 (2nd batch)) was “D (A percentage control of from 20 to 39 is indicated by the letter D)” and the “Average of % corrected affected” value [1, 2] was “E (A percentage control of from 1 to 19 is indicated by the letter E)”. The “Average of % corrected affected” value [1, 3] was “D (A percentage control of from 20 to 39 is indicated by the letter D)”, the “Average of % corrected affected” value ([1]; 0.05 % w/v, 24 hours post application) was “D (A percentage control of from 20 to 39 is indicated by the letter D)” and the “Average of % corrected affected” value ([1]; 0.05 % w/v, 24 hours post application, listed as 26 (2nd batch)) was “E (A percentage control of from 1 to 19 is indicated by the letter E)”. For the same compound, the “Average of % corrected affected” value ([1]; 0.05 % w/v, 48 hours post application) was “D (A percentage control of from 20 to 39 is indicated by the letter D)”, the “Average of % corrected affected” value ([1]; 0.05 % w/v, 48 hours post application, listed as 26 (2nd batch)) was “E (A percentage control of from 1 to 19 is indicated by the letter E)” and the “Average of % corrected affected” value (aphids, Myzus persicae; 0.003125 % w/v, 24 hours post application) was “D (A percentage control of from 20 to 39 is indicated by the letter D)”. The “Average of % corrected affected” value (aphids, Myzus persicae; 0.003125 % w/v, 24 hours post application, listed as 26 (2nd batch)) was “E (A percentage control of from 1 to 19 is indicated by the letter E)”, the “Average of % corrected affected” value (aphids, Myzus persicae; 0.003125 % w/v, 48 hours post application) was “D (A percentage control of from 20 to 39 is indicated by the letter D)” and the “Average of % corrected affected” value (aphids, Myzus persicae; 0.003125 % w/v, 48 hours post application, listed as 26 (2nd batch)) was “E (A percentage control of from 1 to 19 is indicated by the letter E)”. For the same compound, the “Average of % corrected affected” value (aphids, Myzus persicae; [2]) was “D (A percentage control of from 20 to 39 is indicated by the letter D)”, the “Average of % corrected affected” value (aphids, Myzus persicae; [3]) was “E (A percentage control of from 1 to 19 is indicated by the letter E)” and the “Average of % corrected affected” value (aphids, Myzus persicae; 0.0125 % w/v, 24 hours post application) was “E (A percentage control of from 1 to 19 is indicated by the letter E)”. For the same compound, the “Average of % corrected affected” value (aphids, Myzus persicae; 0.0125 % w/v, 24 hours post application, listed as 26 (2nd batch)) was 0%.

Reference: patent US20160212997A1, “AGRICULTURAL CHEMICALS” (REDAG CROP PROTECTION LTD, priority 2013, published 2016)
